Data published in patent publication US20220332791A1 (ALIVEGEN, published 2022).
No constants are given. Whether binding was seen depends on the method and setting. Some binding calls cover weakened binding; strength is not graded here. Tags and fused reporters may be left off the sequences shown.

T1: myostatin (UniProt O14793 267-375)
T1 sequence (looked up): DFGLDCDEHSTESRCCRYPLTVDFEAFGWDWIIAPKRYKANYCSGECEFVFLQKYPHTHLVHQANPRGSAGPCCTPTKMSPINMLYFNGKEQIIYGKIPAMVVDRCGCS

T2: activin A (UniProt P08476 311-426)
T2 sequence (looked up): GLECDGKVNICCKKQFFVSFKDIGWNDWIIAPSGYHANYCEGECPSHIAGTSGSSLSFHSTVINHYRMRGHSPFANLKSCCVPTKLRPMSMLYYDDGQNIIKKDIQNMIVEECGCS

T3: BMP9 (UniProt Q9UK05 320-429)
T3 sequence (looked up): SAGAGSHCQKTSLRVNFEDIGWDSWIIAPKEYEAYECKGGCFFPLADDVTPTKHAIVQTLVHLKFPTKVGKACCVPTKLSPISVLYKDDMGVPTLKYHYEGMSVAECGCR


What was measured:
myostatin = target: T1, myostatin; assay: KinExA
activin A = target: T2, activin A; assay: KinExA
BMP9 [1] = target: T3, BMP9; assay: KinExA
BMP9 [2] = target: T3, BMP9; assay: automated ELISA on BMP9-coated beads (KinExA instrument), 100 pM, 1 nM and 10 nM; reference of the comparison
BMP9 [3] = target: T3, BMP9; assay: automated ELISA on KinExA: BMP9-coupled Sepharose beads, captured Fc fusion detected with Alexa Fluor 647 goat anti-human Fc

| binding (myostatin) | binding (activin A) | binding (BMP9 [1]) | binding (BMP9 [2]) | binding (BMP9 [3]) | Binder |
| --- | --- | --- | --- | --- | --- |
| binds | binds | binds | binds | binds | wild-type ActRIIB-ECD-Fc fusion protein (Fc fusion, also called WT ActRIIB-Fc; WT; not shown: human Fc domain) ETRECIYYNANWELERTNQSGLERCEGEQDKRLHCYASWRNSSGTIELVKKGCWLDDFNCYDRQECVATEENPQVYFCCCEGNFCNERFTHLPEAGGPEVTYEPPPTAPTGGGGSESKYGPPCPPCP |
| binds | binds | – | – | – | hybrid ActRIIB ligand trap protein AG-0027 (SEQ ID NO: 29) (Fc fusion, also called Hybrid Trap A; Hybrid Trap; not shown: human Fc domain) ETRECIYYNANWELERTNQSGLERCEGDQDKRLHCYASWRNSSGTIELVKKGCWLDDINCYDRQECVATKENPQVYFCCCEGNFCNERFTHLPEAGGPEVTYEPPPTAPTGGGGSESKYGPPCPPCP |
| binds | binds | – | – | – | hybrid ActRIIB ligand trap protein AG-0014 (SEQ ID NO: 16) (Fc fusion, also called Hybrid Trap B; not shown: human Fc domain) ETRECIYYNANWELERTNQSGLERCYGDKDKRRHCYASWRNSSGTIELVKKGCWLDDFNCYDRQECVATEENPQVYFCCCEGNFCNERFTHLPEAGGPEVTYEPPPTAPTGGGGSESKYGPPCPPCP |
